Our source for the log2 fold change values is the supplement of paper PMC10849652.

Protein sequences, listed by entry. Tags and fused reporters are not part of them. Lines headed by an entry give the natural chain unless they say otherwise; changes in a name come on top.
UniProt Q86YM7: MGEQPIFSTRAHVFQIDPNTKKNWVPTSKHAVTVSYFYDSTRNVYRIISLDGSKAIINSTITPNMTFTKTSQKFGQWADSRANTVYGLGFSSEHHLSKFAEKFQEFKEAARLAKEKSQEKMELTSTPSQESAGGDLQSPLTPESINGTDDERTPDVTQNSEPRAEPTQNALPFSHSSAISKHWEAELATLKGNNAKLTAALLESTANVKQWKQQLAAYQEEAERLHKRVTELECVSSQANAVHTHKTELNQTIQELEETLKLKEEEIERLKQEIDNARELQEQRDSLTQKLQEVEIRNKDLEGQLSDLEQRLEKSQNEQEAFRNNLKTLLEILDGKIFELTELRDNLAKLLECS
UniProt P17482: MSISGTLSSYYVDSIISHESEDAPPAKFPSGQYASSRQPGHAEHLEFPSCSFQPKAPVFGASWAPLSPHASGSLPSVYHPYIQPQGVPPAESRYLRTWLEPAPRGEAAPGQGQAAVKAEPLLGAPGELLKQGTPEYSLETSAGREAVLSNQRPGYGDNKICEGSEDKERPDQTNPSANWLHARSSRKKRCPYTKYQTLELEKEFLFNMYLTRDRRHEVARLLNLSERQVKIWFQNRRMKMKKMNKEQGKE
UniProt O75506: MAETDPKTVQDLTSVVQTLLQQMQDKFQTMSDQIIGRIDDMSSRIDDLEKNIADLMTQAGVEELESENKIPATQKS
UniProt Q9NWY4: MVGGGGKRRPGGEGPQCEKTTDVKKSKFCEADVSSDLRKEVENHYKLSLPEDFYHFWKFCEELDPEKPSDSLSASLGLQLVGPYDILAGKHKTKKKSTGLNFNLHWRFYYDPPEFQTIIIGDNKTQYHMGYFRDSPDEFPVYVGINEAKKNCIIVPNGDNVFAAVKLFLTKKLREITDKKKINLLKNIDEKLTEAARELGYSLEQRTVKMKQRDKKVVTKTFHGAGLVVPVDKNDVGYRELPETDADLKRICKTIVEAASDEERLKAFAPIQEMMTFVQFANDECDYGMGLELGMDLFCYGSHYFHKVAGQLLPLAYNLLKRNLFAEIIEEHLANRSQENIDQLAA
UniProt P31943: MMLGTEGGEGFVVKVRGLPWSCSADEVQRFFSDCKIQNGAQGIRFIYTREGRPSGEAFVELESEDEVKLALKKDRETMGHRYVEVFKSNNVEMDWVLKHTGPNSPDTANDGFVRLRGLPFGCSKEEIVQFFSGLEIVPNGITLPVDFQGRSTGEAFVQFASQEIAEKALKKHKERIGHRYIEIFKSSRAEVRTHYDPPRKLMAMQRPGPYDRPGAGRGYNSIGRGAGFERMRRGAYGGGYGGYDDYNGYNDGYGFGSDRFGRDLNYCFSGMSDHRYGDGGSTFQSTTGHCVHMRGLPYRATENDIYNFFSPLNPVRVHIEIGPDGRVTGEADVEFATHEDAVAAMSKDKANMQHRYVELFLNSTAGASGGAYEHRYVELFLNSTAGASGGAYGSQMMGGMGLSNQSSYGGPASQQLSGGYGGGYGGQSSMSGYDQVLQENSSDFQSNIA
UniProt Q9UPZ3: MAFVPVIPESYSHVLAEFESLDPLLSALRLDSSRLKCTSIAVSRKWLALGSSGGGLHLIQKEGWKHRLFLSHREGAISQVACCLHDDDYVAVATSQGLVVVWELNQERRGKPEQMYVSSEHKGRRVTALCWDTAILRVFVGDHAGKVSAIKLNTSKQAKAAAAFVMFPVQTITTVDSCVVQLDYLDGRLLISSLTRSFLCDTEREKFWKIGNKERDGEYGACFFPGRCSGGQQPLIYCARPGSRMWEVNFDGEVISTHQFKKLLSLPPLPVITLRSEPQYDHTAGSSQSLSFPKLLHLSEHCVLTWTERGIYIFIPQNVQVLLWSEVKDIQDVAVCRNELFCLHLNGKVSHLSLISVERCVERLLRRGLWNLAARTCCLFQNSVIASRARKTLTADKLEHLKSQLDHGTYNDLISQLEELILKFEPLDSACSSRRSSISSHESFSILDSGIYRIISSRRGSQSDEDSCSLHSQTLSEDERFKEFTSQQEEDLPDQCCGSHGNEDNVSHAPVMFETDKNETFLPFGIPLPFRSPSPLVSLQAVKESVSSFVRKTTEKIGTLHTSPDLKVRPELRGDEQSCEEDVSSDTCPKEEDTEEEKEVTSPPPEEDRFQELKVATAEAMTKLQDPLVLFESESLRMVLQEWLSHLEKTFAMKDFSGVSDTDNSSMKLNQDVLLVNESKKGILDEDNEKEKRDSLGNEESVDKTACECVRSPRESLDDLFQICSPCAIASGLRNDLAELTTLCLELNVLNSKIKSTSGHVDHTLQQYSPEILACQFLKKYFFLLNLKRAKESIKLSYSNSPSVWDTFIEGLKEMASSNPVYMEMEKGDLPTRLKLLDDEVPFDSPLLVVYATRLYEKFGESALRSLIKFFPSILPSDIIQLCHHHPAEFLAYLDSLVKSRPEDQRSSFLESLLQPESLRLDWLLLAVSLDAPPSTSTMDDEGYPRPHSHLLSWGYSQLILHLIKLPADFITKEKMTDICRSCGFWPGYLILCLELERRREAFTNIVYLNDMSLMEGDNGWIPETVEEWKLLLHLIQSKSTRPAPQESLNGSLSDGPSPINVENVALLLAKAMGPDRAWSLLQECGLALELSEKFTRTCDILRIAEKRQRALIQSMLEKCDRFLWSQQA
UniProt P06865: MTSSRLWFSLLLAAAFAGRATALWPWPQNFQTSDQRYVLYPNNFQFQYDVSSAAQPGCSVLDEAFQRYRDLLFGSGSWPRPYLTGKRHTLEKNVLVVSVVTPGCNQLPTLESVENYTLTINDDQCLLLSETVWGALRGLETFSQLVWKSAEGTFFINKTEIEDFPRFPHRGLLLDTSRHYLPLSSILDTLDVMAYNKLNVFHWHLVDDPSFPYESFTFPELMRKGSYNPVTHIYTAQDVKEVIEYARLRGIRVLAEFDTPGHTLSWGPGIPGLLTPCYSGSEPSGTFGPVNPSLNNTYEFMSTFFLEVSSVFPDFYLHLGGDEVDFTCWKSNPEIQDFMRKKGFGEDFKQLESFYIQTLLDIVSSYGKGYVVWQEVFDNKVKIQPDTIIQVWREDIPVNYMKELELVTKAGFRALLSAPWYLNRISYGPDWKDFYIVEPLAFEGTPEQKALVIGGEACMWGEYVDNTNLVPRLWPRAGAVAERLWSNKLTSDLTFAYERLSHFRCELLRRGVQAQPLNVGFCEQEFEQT
UniProt P22626: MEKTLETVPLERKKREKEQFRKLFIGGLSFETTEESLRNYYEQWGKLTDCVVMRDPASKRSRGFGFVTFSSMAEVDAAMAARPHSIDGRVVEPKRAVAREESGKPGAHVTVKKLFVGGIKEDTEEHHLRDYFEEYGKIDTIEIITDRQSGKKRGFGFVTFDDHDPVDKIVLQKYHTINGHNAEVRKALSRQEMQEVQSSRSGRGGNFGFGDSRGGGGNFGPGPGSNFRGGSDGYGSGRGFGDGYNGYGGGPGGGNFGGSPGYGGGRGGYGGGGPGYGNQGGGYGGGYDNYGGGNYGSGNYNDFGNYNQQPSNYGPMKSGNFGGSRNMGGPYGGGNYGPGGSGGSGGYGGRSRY
UniProt O14979: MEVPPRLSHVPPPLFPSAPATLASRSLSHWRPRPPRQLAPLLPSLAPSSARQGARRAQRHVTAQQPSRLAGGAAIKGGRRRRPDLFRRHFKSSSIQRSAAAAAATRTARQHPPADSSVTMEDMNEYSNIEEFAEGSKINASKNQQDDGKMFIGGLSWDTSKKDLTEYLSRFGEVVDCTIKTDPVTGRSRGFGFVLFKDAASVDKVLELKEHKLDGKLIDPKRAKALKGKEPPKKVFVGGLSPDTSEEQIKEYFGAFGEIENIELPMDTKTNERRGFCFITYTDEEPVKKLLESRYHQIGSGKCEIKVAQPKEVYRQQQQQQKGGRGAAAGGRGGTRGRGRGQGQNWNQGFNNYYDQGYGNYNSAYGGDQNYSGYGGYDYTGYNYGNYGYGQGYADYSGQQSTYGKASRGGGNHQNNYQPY
UniProt Q03933: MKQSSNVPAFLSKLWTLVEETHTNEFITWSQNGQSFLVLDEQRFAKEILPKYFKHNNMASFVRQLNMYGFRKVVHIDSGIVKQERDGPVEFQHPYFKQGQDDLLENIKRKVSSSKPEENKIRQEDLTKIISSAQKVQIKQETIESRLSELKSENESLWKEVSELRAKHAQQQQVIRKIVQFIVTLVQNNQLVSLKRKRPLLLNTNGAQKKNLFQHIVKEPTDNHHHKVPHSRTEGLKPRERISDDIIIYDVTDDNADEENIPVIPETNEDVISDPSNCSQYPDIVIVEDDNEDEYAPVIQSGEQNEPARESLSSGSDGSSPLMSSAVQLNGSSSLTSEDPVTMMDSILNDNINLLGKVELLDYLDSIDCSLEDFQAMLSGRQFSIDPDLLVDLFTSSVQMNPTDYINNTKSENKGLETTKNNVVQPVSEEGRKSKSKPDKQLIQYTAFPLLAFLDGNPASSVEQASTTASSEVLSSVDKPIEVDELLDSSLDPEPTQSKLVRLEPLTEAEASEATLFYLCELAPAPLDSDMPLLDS
UniProt Q9NRV9: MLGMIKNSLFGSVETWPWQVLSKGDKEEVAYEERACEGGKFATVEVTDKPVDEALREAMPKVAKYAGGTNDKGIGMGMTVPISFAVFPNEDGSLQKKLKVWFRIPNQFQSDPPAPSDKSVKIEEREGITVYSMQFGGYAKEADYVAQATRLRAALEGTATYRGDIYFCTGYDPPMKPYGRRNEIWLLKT
UniProt P19367: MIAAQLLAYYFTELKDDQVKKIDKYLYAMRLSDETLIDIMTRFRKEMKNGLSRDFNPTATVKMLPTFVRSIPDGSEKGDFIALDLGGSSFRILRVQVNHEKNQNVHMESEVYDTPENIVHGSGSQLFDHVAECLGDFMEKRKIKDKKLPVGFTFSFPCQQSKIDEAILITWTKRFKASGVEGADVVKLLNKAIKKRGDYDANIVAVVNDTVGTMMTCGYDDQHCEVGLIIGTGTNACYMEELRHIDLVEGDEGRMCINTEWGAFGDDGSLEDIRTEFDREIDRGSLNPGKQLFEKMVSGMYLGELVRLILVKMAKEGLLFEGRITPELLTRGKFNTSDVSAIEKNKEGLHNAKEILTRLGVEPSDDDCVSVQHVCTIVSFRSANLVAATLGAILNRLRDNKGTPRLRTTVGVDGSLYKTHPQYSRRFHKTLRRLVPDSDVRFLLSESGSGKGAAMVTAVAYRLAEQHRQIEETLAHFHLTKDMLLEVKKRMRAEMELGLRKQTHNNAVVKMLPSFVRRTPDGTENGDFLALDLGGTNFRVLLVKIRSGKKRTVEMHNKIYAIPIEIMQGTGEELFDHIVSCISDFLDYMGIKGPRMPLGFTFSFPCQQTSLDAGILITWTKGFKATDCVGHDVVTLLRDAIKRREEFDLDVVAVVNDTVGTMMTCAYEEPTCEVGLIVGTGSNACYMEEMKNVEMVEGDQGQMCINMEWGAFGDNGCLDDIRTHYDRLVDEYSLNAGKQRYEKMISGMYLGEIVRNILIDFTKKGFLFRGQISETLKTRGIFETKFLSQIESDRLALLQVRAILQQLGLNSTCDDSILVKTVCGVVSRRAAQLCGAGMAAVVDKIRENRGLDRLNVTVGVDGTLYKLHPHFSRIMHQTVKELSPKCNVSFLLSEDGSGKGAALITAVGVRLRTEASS
UniProt P30519: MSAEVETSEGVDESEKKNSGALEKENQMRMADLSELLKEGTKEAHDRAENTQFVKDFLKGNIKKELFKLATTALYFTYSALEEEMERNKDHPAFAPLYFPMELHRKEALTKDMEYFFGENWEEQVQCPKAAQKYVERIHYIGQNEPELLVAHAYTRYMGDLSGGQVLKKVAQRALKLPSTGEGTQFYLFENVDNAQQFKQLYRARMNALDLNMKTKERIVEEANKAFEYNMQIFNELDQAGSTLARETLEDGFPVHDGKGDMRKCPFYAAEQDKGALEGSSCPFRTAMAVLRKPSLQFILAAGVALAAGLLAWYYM
UniProt Q9BXL5: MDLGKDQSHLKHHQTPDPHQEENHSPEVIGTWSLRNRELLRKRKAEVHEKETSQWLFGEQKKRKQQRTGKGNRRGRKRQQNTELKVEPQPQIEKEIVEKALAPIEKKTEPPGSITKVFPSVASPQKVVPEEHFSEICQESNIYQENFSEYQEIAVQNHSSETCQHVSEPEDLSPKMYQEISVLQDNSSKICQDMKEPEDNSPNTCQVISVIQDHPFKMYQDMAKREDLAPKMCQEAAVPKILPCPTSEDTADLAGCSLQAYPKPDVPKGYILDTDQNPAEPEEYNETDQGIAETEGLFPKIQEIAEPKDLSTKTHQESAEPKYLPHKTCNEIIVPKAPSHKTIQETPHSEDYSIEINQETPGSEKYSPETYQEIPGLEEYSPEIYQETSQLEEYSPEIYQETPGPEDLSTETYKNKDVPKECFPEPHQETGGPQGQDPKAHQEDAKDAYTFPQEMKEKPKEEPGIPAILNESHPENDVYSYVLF
UniProt Q6DN03, whole entry, looked up: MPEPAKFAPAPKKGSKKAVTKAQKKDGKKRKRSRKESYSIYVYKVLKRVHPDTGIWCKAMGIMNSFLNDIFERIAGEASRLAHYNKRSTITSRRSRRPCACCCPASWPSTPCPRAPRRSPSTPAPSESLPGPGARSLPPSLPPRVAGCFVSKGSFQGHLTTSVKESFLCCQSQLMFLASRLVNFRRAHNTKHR

The other results are listed elsewhere or left out.

Compound in the assay: CCn1c(C(=O)N(C2CC2)C2CC2)cc2c3c(ncn3C)c(Nc3cc(C)n(C)n3)nc21
In words: log2 fold change, soluble protein after heating vs DMSO (PISA); higher = thermal stabilisation; K562 lysate, 10 uM; active = over 0.2 and 3.5 SD of the protein, either way, in both replicates (recomputed). Summed up:
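Values give the log-two fold change in thermal stability against solvent controls, from duplicates. Crude K562 extract at 1 mg/mL protein, made by dounce homogenisation in PBS pH 7.4 with 1 mM MgCl2, was treated with 10 μM compound for 30 min. After 3 min heating across 48°C-58°C, aliquots were pooled, adjusted to 0.5% NP-40 at 4°C and centrifuged at 21,000xg for 90 min. The supernatant was measured by TMTpro 16plex LC-MS/MS with channel sums equalised.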
For the target HECTD3 (UniProt Q5T447), the log2 fold change is inactive: 0.018. HM13 isoform 2 (UniProt Q8TCT9): the log2 fold change was inactive: -0.009. With HSD17B12 (UniProt Q53GQ0), the log2 fold change is inactive: -0.024. The figure for HLCS (UniProt P50747) is inactive: 0.003. With HEATR6 (UniProt Q6AI08) the figure was inactive: 0.073; with HOMER1 (UniProt Q86YM7), inactive: -0.021. With HOXB9 (UniProt P17482) the figure was inactive: 0.195; with HJURP (UniProt Q8NCD3), inactive: 0.007.

For HSBP1 (UniProt O75506), the log2 fold change was inactive: 0.101. Regarding HPF1 (UniProt Q9NWY4), the log2 fold change was inactive: 0.015. For HNRNPH1 (UniProt P31943), the log2 fold change is inactive: 0.027.

With HPS5 (UniProt Q9UPZ3), the log2 fold change was inactive: -0.107. Take HEXA (UniProt P06865): the log2 fold change is inactive: -0.006. The figure for HNRNPA2B1 (UniProt P22626) is inactive: -0.009; for HNRNPDL (UniProt O14979) it is inactive: 0.003; for HSF2 (UniProt Q03933) it is inactive: -0.025.

Turning to HEBP1 (UniProt Q9NRV9), the log2 fold change is inactive: -0.088. With HIST2H2BF isoform 2 (UniProt Q5QNW6) the figure was inactive: -0.029; with HK1 isoform 2 (UniProt P19367), inactive: 0.014; with HMOX2 (UniProt P30519), inactive: -0.012.

For the target HEMGN (UniProt Q9BXL5), the log2 fold change was inactive: -0.03.

Consider HIST2H2BC (UniProt Q6DN03), for which the log2 fold change was inactive: 0.033.

Regarding HNRNPA0 (UniProt Q13151), the log2 fold change is inactive: -0.003.
